Assay results from paper PMC8985176, “Structural transformation of methasterone with Cunninghamella blakesleeana and Macrophomina phaseolina” (RSC Advances, 2022).
In brackets after ≈: the same amount, converted by molar mass.

Experiments:
[1] = system: MCF-7 (breast cancer) cell line; experiment: Cytotoxicity MTT assay, MCF-7 cells; format: cell-based; conditions: Homo sapiens, MCF7, 48 h, read-out: IC50 against MCF-7
Description: (§1) MCF-7 (breast cancer), NCI-H460 (lung cancer), HeLa (cervical cancer) cell lines, and BJ (normal human fibroblast) cell lines were collected from cell culture biobank (PCMD, ICCBS). DMEM medium was used for MCF-7, HeLa, and BJ, and RPMI (ATCC modified medium) was used for NCI-H460. The media was supplemented with 10% FBS, 100 IU mL^−1 of penicillin, and 100 μg mL^−1 of streptomycin, and kept at 37 °C in a 5% CO2 incubator. The inhibition was investigated by MTT assay. Briefly, 100 μL per well of cell solutions (10 × 10^4 cells per mL MCF-7 cells, 5 × 10^4 cells per mL NCI-H460 cells, 6 × 10^4 cells per mL HeLa cells, or 5 × 10^4 cells per mL BJ cells), were added into 96-well plate and incubated for 24 h at 37 °C, before treatment with 6.25–50 μM of compounds or positive control doxorubicin for 48 h. After this, 20 μL of MTT (5 mg mL^−1) was added to each well and then incubated for 4 h at 37 °C. Then 100 μL DMSO was added to each well to dissolve the purple formazan crystal. The absorbance was analyzed at 570 nm (MCF-7, NCI-H460, and HeLa) or 550 nm (BJ) using an ELISA plate reader.

[2] = system: HeLa (cervical cancer) cell line; experiment: Cytotoxicity MTT assay, HeLa cells; format: cell-based; conditions: Homo sapiens, 48 h, read-out: IC50 against HeLa cell line
Description: as §1

`COc1cccc2c1C(=O)c1c(O)c3c(c(O)c1C2=O)C[C@@](O)(C(=O)CO)C[C@@H]3O[C@H]1C[C@H](N)[C@H](O)[C@H](C)O1` [doxorubicin, reference compound] showed an IC50 [1] of 1.2 ± 0.11 µg/mL (≈ 2.21 µM) and an IC50 [2] of 0.16 ± 0.01 µg/mL (≈ 0.294 µM).
